According to PubChem BioAssay AID262 (DTP/NCI, 2004):
The list shows only some results of the screen, not a fair sample: it gathers tests that were run many times, whatever their T/C, doses with no T/C, and many T/C values between a quarter and a half above the control. Other doses and runs of a compound stand elsewhere. T/C: endpoint of the treated group in % of that of the vehicle group. Schedule codes are those of the source, read here as Q, the interval in days (D) or hours (H), X, the number of doses. Some T/C values carry the count of animals alive at the toxicity check (mostly the fifth day); where none is given, no animal had died by that day. Some values lie below zero, which means that the treated tumours became smaller. Some entries hold several experiments; the values are given in rising order. Some doses have a count of surviving animals in place of a T/C: the source holds a T/C of zero for them, seemingly a mark for toxic or unscored doses. Survivors were counted at the toxicity check, usually on the fifth day, unless a day is given; later deaths do not show.

Tested on: LX-1 lung xenograft sc, nude mice, tumor weight
Experiment: NCI In Vivo Anticancer Drug Screen. Data for tumor model Human Lung LX-1 Xenograft (subcutaneous) in NU/NU Swiss (nude) mice
Conditions: T/C endpoint: optimum tumor weight change, higher T/C = larger tumour
Description: The antitumor activity of compounds was measured in mice bearing transplantable tumors. Survival or tumor size were measured and the results are expressed as the measurement made in the treated group (T) divided by the measurement made in the vehicle treated control group (C). The tumor model used in this assay is Human Lung LX-1 Xenograft (subcutaneous) in NU/NU Swiss (nude) mice

[1] = dose: 800.0 mg/kg/injection, schedule: Q04DX003 (ip), vehicle: suspension in saline
[2] = dose: 1600.0 mg/kg/injection, schedule: Q04DX003 (ip), vehicle: suspension in saline
[3] = dose: 100.0 mg/kg/injection, schedule: Q04DX003 (ip), vehicle: suspension in saline
[4] = dose: 400.0 mg/kg/injection, schedule: Q04DX003 (ip), vehicle: suspension in saline
[5] = dose: 32.0 mg/kg/injection, schedule: Q04DX003 (ip), vehicle: saline
[6] = dose: 50.0 mg/kg/injection, schedule: Q04DX003 (ip), vehicle: saline

SMILES: COc1cccc2c1C(=O)c1c(O)c3c(c(O)c1C2=O)C[C@@](O)(C(=O)CO)C[C@@H]3OC1CC(N)C(O)C(C)O1 (some centres undefined)
- survivor count (dose: 8.0 mg/kg/injection, schedule: Q04DX003 (ip), vehicle: water): 0 of 5 on day 35

SMILES: N=c1ccn2c(n1)OC1C(O)C(CO)OC12 (centres undefined)
- survivor count [1]: 1 of 5 on day 36
- survivor count [2]: 3 of 5 on day 34

SMILES: N=C(N)Sc1ccccn1
- T/C (dose: 100.0 mg/kg/injection, schedule: Q04DX003 (ip), vehicle: saline, evaluated on day 33): 140 % of control
- T/C (dose: 200.0 mg/kg/injection, schedule: Q04DX003 (ip), vehicle: saline, evaluated on day 33): 148 % of control
- survivor count (dose: 400.0 mg/kg/injection, schedule: Q04DX003 (ip), vehicle: saline): 1 of 5 on day 35

SMILES: CO[C@@]12[C@H](COC(N)=O)C3=C(C(=O)C(C)=C(N)C3=O)N1C[C@@H]1N[C@@H]12
- T/C (dose: 0.75 mg/kg/injection, schedule: Q04DX003 (ip), vehicle: saline, evaluated on day 33): 130 % of control

SMILES: NC(Cc1ccc(N(CCCl)CCCl)cc1)C(=O)O (centres undefined)
- survivor count (dose: 10.0 mg/kg/injection, schedule: Q04DX003 (ip), vehicle: Klucel (hydroxypropylcellulose) (HPC)): 2 of 5 on day 36
- survivor count (dose: 20.0 mg/kg/injection, schedule: Q04DX003 (ip), vehicle: Klucel (hydroxypropylcellulose) (HPC)): 1 of 5 on day 36

SMILES: CC(CN1CC(=O)NC(=O)C1)N1CC(=O)NC(=O)C1 (centres undefined)
- survivor count [3]: 3 of 5 on day 36
- survivor count [4]: 2 of 5 on day 34 and 2 of 5 on day 36
- survivor count [1]: 0 of 5 on day 36

SMILES: CN(C)/N=N/c1nc[nH]c1C(N)=O
- T/C (dose: 100.0 mg/kg/injection, schedule: Q04DX003 (ip), vehicle: Klucel (hydroxypropylcellulose) (HPC), evaluated on day 33): 13 % of control
- T/C (dose: 100.0 mg/kg/injection, schedule: Q04DX003 (ip), vehicle: Klucel (hydroxypropylcellulose) (HPC), evaluated on day 34): -2 and 58 % of control
- T/C (dose: 100.0 mg/kg/injection, schedule: Q04DX003 (ip), vehicle: Klucel (hydroxypropylcellulose) (HPC), evaluated on day 36): 23 % of control
- T/C (dose: 200.0 mg/kg/injection, schedule: Q04DX003 (ip), vehicle: Klucel (hydroxypropylcellulose) (HPC), evaluated on day 33): -15 % of control
- T/C (dose: 200.0 mg/kg/injection, schedule: Q04DX003 (ip), vehicle: Klucel (hydroxypropylcellulose) (HPC), evaluated on day 34): -53 [5 of 6 alive on day 36] and 49 % of control
- T/C (dose: 400.0 mg/kg/injection, schedule: Q04DX003 (ip), vehicle: Klucel (hydroxypropylcellulose) (HPC), evaluated on day 33): -47 % of control
- T/C (dose: 400.0 mg/kg/injection, schedule: Q04DX003 (ip), vehicle: Klucel (hydroxypropylcellulose) (HPC), evaluated on day 34): -45 and 34 % of control
- T/C (dose: 400.0 mg/kg/injection, schedule: Q04DX003 (ip), vehicle: Klucel (hydroxypropylcellulose) (HPC), evaluated on day 36): 32 % of control
- T/C (dose: 800.0 mg/kg/injection, schedule: Q04DX003 (ip), vehicle: Klucel (hydroxypropylcellulose) (HPC), evaluated on day 33): -30 % of control
- T/C (dose: 800.0 mg/kg/injection, schedule: Q04DX003 (ip), vehicle: Klucel (hydroxypropylcellulose) (HPC), evaluated on day 34): 22 % of control
- T/C (dose: 800.0 mg/kg/injection, schedule: Q04DX003 (ip), vehicle: Klucel (hydroxypropylcellulose) (HPC), evaluated on day 36): 1 % of control
- survivor count (dose: 800.0 mg/kg/injection, schedule: Q04DX003 (ip), vehicle: Klucel (hydroxypropylcellulose) (HPC)): 0 of 6 on day 36 and 2 of 5 on day 34
- survivor count (dose: 1600.0 mg/kg/injection, schedule: Q04DX003 (ip), vehicle: Klucel (hydroxypropylcellulose) (HPC)): 2 of 5 on day 34
- survivor count (dose: 3200.0 mg/kg/injection, schedule: Q04DX003 (ip), vehicle: Klucel (hydroxypropylcellulose) (HPC)): 0 of 5 on day 34

SMILES: NC(=O)c1ccc[n+](Cc2c(Cl)cccc2Cl)c1
- survivor count (dose: 96.0 mg/kg/injection, schedule: Q04DX003 (ip), vehicle: saline): 3 of 5 on day 36
- survivor count (dose: 192.0 mg/kg/injection, schedule: Q04DX003 (ip), vehicle: saline): 0 of 5 on day 36

SMILES: CCCCNCCCNCCCNC(=O)c1csc(-c2csc(CCNC(=O)C(NC(=O)C(C)C(O)C(C)NC(=O)C(NC(=O)c3nc(C(CC(N)=O)NCC(N)C(N)=O)nc(N)c3C)C(OC3OC(CO)C(O)C(O)C3OC3OC(CO)C(O)C(OC(N)=O)C3O)c3cnc[nH]3)C(C)O)n2)n1 (centres undefined)
- survivor count (dose: 60.0 mg/kg/injection, schedule: Q04DX003 (ip), vehicle: saline): 3 of 5 on day 36
- survivor count (dose: 120.0 mg/kg/injection, schedule: Q04DX003 (ip), vehicle: saline): 0 of 5 on day 36

SMILES: CN(CO)c1nc(N(C)CO)nc(N(C)CO)n1
- T/C (dose: 25.0 mg/kg/injection, schedule: Q04DX005 (ip), vehicle: saline, evaluated on day 56): 149 % of control
- T/C (dose: 100.0 mg/kg/injection, schedule: Q04DX005 (ip), vehicle: saline, evaluated on day 56): 149 % of control [4 of 5 alive]
- T/C (dose: 200.0 mg/kg/injection, schedule: Q04DX005 (ip), vehicle: saline, evaluated on day 56): 130 % of control

SMILES: Cc1c(N)nc([C@H](CC(N)=O)NC[C@H](N)C(N)=O)nc1C(=O)N[C@H](C(=O)N[C@H](C)[C@@H](O)[C@H](C)C(=O)N[C@H](C(=O)NCCc1nc(-c2nc(C(=O)NCCC[S+](C)C)cs2)cs1)[C@@H](C)O)C(OC1OC(CO)C(O)C(O)C1OC1OC(CO)C(O)C(OC(N)=O)C1O)c1cnc[nH]1 (some centres undefined)
- survivor count [5]: 1 of 5 on day 35
- survivor count (dose: 64.0 mg/kg/injection, schedule: Q04DX003 (ip), vehicle: saline): 0 of 5 on day 35, 0 of 5 on day 36, 3 of 5 on day 36

SMILES: CN1CCN(CCCN2c3ccccc3Sc3ccc(C(F)(F)F)cc32)CC1
- survivor count [6]: 2 of 5 on day 37

SMILES: OCC1OC(n2cnc3cncnc32)C(O)C1O (centres undefined)
- survivor count [6]: 1 of 5 on day 36
- survivor count (dose: 100.0 mg/kg/injection, schedule: Q04DX003 (ip), vehicle: saline): 0 of 5 on day 36

SMILES: N=C(N)SCc1c2ccccc2c(CSC(=N)N)c2ccccc12
- T/C (dose: 50.0 mg/kg/injection, schedule: Q04DX003 (ip), vehicle: suspension in saline, evaluated on day 35): 145 % of control [4 of 5 alive on day 37]
- survivor count [3]: 2 of 5 on day 37
- survivor count (dose: 200.0 mg/kg/injection, schedule: Q04DX003 (ip), vehicle: suspension in saline): 0 of 5 on day 37
- survivor count [4]: 0 of 5 on day 37

SMILES: CNC=O
- survivor count (dose: 800.0 mg/kg/injection, schedule: Q04DX003 (ip), vehicle: saline): 3 of 5 on day 40
- survivor count (dose: 1600.0 mg/kg/injection, schedule: Q04DX003 (ip), vehicle: saline): 3 of 5 on day 34
- survivor count [2]: 1 of 5 on day 34 and 3 of 5 on day 36

SMILES: CN1N=C(N)c2cn(C3OC(COP(=O)(O)O)C(O)C3O)c3ncnc1c23 (centres undefined)
- survivor count (dose: 25.0 mg/kg/injection, schedule: Q04DX003 (ip), vehicle: water): 3 of 5 on day 40
- survivor count (dose: 100.0 mg/kg/injection, schedule: Q04DX003 (ip), vehicle: water): 0 of 5 on day 40
- survivor count (dose: 200.0 mg/kg/injection, schedule: Q04DX003 (ip), vehicle: water): 0 of 5 on day 40

SMILES: O=[N+]([O-])/C=C\c1ccc2c(c1)OCO2
- survivor count (dose: 50.0 mg/kg/injection, schedule: Q04DX003 (ip), vehicle: Klucel (hydroxypropylcellulose) (HPC)): 3 of 5 on day 37
- survivor count (dose: 100.0 mg/kg/injection, schedule: Q04DX003 (ip), vehicle: Klucel (hydroxypropylcellulose) (HPC)): 3 of 5 on day 37
- survivor count (dose: 200.0 mg/kg/injection, schedule: Q04DX003 (ip), vehicle: Klucel (hydroxypropylcellulose) (HPC)): 2 of 5 on day 37

SMILES: C[n+]1c(-c2cccc3ccccc23)c2cc(N)ccc2c2ccccc21
- survivor count (dose: 3.0 mg/kg/injection, schedule: Q04DX003 (ip), vehicle: saline): 3 of 5 on day 34

SMILES: Cc1c(N)nc(C(CC(N)=O)NCC(N)C(N)=O)nc1C(=O)NC(C(=O)NC(C)C(O)CC(=O)NC(C(=O)NC(OC1OC(C)C(N)C(O)C1O)C(O)c1nc(-c2nc(C(=O)NCCCC(N)CC(=O)NCCCNCCCCN)cs2)cs1)C(C)O)C(OC1OC(CO)C(O)C(O)C1OC1OC(CO)C(O)C(OC(N)=O)C1O)c1cnc[nH]1 (centres undefined)
- survivor count (dose: 16.0 mg/kg/injection, schedule: Q04DX003 (ip), vehicle: saline): 3 of 5 on day 36
- survivor count [5]: 0 of 5 on day 36
